Binding data for one substance are collected here from patent US20100055712A1, “Oligopeptides for treatment of osteoporosis and other bone diseases and methods therefor” (Washington University, priority 2008, published 2010).

The chains behind the UniProt entries cited, without tags or fusion partners. Residues count along the entry.
UniProt Q07954, residues 20-4544: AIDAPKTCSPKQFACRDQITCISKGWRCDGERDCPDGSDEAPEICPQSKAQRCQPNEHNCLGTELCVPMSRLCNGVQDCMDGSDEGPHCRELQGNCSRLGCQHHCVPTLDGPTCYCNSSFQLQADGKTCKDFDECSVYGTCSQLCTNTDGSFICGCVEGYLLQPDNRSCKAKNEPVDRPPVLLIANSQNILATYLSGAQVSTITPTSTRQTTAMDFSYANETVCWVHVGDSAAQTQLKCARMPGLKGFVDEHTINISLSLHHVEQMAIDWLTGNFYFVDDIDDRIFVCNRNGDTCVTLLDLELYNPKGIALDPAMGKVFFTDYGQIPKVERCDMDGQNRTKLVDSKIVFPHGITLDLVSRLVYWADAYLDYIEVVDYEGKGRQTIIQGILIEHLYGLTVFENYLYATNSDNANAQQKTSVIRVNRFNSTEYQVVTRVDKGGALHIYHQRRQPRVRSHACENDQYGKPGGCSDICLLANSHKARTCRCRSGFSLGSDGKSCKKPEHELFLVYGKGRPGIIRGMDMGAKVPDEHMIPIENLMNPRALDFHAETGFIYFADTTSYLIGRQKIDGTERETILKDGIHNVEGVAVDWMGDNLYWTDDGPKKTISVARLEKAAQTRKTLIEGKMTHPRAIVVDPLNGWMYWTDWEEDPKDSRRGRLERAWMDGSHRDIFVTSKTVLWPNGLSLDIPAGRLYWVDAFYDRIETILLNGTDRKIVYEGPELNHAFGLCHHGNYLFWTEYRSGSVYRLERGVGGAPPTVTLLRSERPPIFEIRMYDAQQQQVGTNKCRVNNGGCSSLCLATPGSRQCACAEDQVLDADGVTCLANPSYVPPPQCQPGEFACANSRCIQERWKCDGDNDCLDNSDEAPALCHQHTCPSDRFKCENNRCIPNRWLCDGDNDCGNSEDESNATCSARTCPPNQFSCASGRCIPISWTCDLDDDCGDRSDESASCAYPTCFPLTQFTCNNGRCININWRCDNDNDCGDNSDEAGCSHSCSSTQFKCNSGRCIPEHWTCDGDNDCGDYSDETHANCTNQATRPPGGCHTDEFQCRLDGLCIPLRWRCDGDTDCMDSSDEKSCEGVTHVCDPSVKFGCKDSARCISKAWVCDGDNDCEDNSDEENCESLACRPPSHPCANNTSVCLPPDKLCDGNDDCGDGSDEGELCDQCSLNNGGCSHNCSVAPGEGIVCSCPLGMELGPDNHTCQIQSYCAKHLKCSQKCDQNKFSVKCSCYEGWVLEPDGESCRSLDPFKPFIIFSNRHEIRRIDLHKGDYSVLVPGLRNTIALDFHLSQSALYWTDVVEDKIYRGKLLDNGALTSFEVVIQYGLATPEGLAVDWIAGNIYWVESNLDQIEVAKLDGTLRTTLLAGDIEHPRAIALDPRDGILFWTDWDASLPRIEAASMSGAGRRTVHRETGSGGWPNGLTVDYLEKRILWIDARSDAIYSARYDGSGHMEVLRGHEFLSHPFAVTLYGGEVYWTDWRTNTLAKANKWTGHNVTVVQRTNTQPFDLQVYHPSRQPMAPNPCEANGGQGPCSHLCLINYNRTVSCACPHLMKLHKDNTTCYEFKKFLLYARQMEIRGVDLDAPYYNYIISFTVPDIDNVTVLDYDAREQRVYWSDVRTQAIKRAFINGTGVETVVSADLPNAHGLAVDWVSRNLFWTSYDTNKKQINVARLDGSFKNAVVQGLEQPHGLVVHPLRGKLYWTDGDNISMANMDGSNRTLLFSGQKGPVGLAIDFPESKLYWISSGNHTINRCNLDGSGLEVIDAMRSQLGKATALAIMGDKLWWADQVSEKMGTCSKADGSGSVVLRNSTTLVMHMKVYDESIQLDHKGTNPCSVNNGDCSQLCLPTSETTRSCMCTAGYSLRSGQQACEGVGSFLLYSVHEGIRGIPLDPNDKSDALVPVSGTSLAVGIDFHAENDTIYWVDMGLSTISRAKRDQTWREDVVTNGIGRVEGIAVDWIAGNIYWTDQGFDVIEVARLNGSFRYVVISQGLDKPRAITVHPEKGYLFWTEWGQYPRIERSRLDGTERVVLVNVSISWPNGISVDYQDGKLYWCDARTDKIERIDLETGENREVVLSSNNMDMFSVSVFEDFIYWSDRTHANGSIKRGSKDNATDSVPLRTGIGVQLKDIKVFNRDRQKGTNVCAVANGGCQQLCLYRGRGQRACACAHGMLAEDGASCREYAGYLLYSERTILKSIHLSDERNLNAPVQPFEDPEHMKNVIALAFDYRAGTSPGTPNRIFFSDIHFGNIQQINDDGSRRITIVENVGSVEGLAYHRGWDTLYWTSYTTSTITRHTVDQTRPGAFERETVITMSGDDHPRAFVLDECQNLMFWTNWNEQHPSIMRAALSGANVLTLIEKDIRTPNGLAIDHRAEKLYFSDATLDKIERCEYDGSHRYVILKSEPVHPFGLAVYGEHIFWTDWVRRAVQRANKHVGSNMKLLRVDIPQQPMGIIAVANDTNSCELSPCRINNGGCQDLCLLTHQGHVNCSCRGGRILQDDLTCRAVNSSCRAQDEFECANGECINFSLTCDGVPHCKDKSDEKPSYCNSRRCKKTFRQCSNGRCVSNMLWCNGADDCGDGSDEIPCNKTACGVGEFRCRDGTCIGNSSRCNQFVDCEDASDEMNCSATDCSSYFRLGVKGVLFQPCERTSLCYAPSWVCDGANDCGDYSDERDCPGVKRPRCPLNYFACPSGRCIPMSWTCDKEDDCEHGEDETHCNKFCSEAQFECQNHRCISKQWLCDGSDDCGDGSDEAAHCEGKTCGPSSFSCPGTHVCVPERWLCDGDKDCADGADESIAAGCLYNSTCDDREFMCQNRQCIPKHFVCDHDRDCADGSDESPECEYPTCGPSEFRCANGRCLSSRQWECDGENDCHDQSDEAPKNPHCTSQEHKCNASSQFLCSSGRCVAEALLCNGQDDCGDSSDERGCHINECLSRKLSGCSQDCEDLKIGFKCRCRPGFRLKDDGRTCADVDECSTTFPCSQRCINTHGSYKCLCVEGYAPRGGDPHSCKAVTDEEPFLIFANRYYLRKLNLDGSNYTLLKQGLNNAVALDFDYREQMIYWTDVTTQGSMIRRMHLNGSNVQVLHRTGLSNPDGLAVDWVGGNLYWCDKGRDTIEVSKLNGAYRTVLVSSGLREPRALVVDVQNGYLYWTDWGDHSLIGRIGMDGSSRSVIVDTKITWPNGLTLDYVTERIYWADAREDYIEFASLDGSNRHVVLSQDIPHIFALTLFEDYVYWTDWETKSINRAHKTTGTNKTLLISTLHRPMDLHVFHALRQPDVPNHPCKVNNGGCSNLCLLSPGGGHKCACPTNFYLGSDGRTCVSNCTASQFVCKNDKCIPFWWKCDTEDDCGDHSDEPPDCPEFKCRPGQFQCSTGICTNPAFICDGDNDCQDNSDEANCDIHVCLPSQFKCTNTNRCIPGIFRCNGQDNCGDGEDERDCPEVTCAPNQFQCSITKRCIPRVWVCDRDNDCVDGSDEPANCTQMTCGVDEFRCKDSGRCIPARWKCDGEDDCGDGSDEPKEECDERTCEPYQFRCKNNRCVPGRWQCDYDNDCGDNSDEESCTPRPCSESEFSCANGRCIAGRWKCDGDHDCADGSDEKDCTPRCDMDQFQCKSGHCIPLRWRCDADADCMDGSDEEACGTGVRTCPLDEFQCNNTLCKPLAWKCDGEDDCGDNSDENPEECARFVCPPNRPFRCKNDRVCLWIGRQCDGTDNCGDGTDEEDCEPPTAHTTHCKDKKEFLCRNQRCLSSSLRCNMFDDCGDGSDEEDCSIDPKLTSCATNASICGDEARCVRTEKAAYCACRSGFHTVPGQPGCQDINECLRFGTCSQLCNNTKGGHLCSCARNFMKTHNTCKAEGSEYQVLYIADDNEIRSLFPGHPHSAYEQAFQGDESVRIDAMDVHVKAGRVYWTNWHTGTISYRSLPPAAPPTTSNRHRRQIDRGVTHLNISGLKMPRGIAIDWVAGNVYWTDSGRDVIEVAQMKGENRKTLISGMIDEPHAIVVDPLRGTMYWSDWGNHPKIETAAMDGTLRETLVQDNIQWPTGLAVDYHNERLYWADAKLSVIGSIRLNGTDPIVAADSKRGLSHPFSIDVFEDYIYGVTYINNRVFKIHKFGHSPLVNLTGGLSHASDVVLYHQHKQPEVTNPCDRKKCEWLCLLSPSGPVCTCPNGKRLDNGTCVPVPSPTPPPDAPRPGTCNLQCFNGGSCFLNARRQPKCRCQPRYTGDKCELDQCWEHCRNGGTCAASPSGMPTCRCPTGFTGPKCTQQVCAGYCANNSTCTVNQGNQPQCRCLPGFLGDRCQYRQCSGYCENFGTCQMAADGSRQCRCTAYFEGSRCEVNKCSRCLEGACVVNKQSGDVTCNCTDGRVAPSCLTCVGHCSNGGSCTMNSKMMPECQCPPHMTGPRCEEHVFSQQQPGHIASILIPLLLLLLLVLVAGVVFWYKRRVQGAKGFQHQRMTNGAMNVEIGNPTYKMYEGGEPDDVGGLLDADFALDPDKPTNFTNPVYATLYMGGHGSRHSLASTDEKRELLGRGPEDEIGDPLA
UniProt P30533, residues 35-357: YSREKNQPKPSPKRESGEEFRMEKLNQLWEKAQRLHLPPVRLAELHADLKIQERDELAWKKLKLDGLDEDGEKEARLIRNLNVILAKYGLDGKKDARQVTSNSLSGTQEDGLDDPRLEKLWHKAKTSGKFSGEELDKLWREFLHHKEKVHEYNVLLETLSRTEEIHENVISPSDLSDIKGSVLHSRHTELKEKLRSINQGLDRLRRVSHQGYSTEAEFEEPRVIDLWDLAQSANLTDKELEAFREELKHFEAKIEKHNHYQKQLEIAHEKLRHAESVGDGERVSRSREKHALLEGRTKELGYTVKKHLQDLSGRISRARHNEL

For the test, the target named is LRP1, endogenous, on U87 glioblastoma cells (UniProt Q07954). The test can be described thus: cell-associated fluorescence of labeled RAP on U87 cells, with or without LRP1 siRNA.

These are yes or no findings as the source states them, for the method shown. Some entries that bind do so weakly or less than the wild type.

With “Human recombinant Receptor-Associated Protein (RAP) labeled with Alexa Fluor488 (from UniProt P30533 35-357) (ligand)”, the binding entry is reported as “binds”.
